No constants are given. Whether binding was seen depends on the method and setting. Binding seen in cells or lysates may run through a third protein. Some binding calls cover weakened binding; strength is not graded here.
Target: APE1 (apurinic/apyrimidinic endonuclease 1), detected in cells with an anti-APE1 antibody (human (endogenous in HeLa, JHH-6, A549)) (UniProt P27695)
Assay: proximity ligation; Duolink PLA in HeLa cells on glass coverslips with anti-APE1 and anti-SFPQ, anti-DHX9 or anti-hnRNPK antibodies; confocal microscopy

hnRNPK (heterogeneous nuclear ribonucleoprotein K) (from UniProt P61978 1-463)
binding: binds
